Measured values as given in PMC7819943, “Rice protein-binding microarrays: a tool to detect cis-acting elements near promoter regions in rice”.
This is one part of the list.

These sequences were tested against T1, OsSMF1 (Oryza sativa, UniProt Q6ZLB0 1-436) (assay: protein-binding microarray (RPBM); PBS, 2% BSA, 51.3 ng/ul salmon testes DNA, 50 uM zinc acetate, 200 nM TF, 25 C, 1 h; high values mean tight binding). Conditions: protein: recombinant; tags: N-terminal polyhistidine and DsRed monomer fusion (pET32a); chain copies: 2; label: CyDye5-dUTP incorporated in the synthesized complementary strand; 3' TTTTT single-stranded linker to array surface; dsDNA, one strand shown.
T1 sequence: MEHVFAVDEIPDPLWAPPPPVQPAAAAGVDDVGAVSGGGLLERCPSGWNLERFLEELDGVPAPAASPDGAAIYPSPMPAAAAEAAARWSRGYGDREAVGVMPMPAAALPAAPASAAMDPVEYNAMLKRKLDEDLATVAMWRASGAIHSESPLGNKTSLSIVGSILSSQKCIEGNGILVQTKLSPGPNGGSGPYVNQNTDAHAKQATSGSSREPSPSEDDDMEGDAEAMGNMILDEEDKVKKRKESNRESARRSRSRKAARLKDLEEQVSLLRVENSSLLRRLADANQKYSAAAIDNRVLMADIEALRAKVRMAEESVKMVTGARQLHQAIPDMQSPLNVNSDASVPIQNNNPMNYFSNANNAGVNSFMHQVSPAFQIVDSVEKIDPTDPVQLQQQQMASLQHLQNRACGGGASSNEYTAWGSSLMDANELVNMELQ
Procedure, shortened: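 Ni–NTA purification followed expression in E. coli BL21-CodonPlus of transcription factors fused N-terminally to a polyhistidine tag and DsRed. At 200 nM in PBS with 2% BSA, salmon testes DNA and 50 µM zinc acetate, the protein was incubated for 1 h at 25 °C with a custom Agilent array that had been primer-extended with Cy5-dUTP and blocked with 2% BSA. After washing, the array was read on an Axon 4000B scanner. The binding signal is per-feature fluorescence intensity in arbitrary units.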

In order of rising binding signal:
1. AAGTCGAAGAAGGGGAACCCCTCCTCCAACCCGGGCCTCTCGGAGTCACCTAGTGCAG  3140 fluorescence intensity (a.u.)
2. CGAACATCTGGCGGTCGACGCGGCGGGACGCGATGGCGGCCGGAGTCACCTAGTGCAG  3140 fluorescence intensity (a.u.)
3. AACTGGCGTACGTGGAAGGAACACGGCCACGATATCGTACCGGAGTCACCTAGTGCAG  3190 fluorescence intensity (a.u.)
4. GTGATTATGATGAATAAGAGCAATGACCGGCTTCGGCCAACGGAGTCACCTAGTGCAG  3200 fluorescence intensity (a.u.)
5. AACATACCTGACACGCTCCCCGTCGATCTCCGCGCCTTCTCGGAGTCACCTAGTGCAG  3220 fluorescence intensity (a.u.)
6. TTGTGAATAAAACTTTTATATACGTGTTCTTAGTGATCTACGGAGTCACCTAGTGCAG  3230 fluorescence intensity (a.u.)
7. CCCCGCTGCTTGTCACGCTCTCGTTGGTCGATCACTCCATCGGAGTCACCTAGTGCAG  3250 fluorescence intensity (a.u.)
8. AATGGTTGAATCAAATACTACCAGTACCGGTCTGATGCCACGGAGTCACCTAGTGCAG  3270 fluorescence intensity (a.u.)
9. GCTCCGCTCCCGCCGGCCATCTTGGCCACTTCCACGCCCGCGGAGTCACCTAGTGCAG  3310 fluorescence intensity (a.u.)
10. CCTGCTCCGGTGGCAGCTGCGGCGGATCCGAGTCCCATCCCGGAGTCACCTAGTGCAG  3460 fluorescence intensity (a.u.)
11. AACAAAATCTCATCATCCCCTCTCGCTCTAGCATATGTCGCGGAGTCACCTAGTGCAG  3470 fluorescence intensity (a.u.)
12. AGTTGCTTGTATATATGCTGAAGTAAGAAGTGAACTGTCGCGGAGTCACCTAGTGCAG  3520 fluorescence intensity (a.u.)
13. AATTGGAACATTCATTTCTGACACACGGAACATTTAATTTCGGAGTCACCTAGTGCAG  3520 fluorescence intensity (a.u.)
14. GCCACCCTAAAATGAGTATAGTCGACTAGACGTGTGTGTGCGGAGTCACCTAGTGCAG  3560 fluorescence intensity (a.u.)
15. TACAAAGACTTGACCTAGACCATATTTGAGTCACTTTGAGCGGAGTCACCTAGTGCAG  3580 fluorescence intensity (a.u.)
16. CGACGCGTGCGAGCGTGCGCACCATATGTAGATCGATTGTCGGAGTCACCTAGTGCAG  3580 fluorescence intensity (a.u.)
17. TTACCTGCTGACCAACCGACCTTGCAAAGGAGGCTTATATCGGAGTCACCTAGTGCAG  3610 fluorescence intensity (a.u.)
18. AGGGACGATTTTGTAATTCGATGACAAGTTGAGAGAACTTCGGAGTCACCTAGTGCAG  3680 fluorescence intensity (a.u.)
19. CTGTTTGAACAAGTGCACGTACGTACTCCGCTTATTAGTTCGGAGTCACCTAGTGCAG  3730 fluorescence intensity (a.u.)
20. GCAAGACTTATGACATGCAGTCACGCACCCAAGTCTTTTGCGGAGTCACCTAGTGCAG  3820 fluorescence intensity (a.u.)
21. GGATATGGACACCTCAACGAACTGACCCGTACGCCCGCACCGGAGTCACCTAGTGCAG  4010 fluorescence intensity (a.u.)
22. CTATGGTGTTGTGATTTGTGAATACTAAAACTAACTTCTCCGGAGTCACCTAGTGCAG  4130 fluorescence intensity (a.u.)
23. ATCCCCAAAACTGATTAGAACACGTCGTGTATCGATGGGGCGGAGTCACCTAGTGCAG  4170 fluorescence intensity (a.u.)
24. CTCTCTGCCATCTCATCCACAGTGACCTCTCTCTCCAAGACGGAGTCACCTAGTGCAG  4170 fluorescence intensity (a.u.)
25. AACAGGAAGGCGCACCGGAGGACACGTACCACGGCGGAGCCGGAGTCACCTAGTGCAG  4240 fluorescence intensity (a.u.)
26. GCGGCGGCACACCGCCGGTGACTCGCCGCCGGTGACGACGCGGAGTCACCTAGTGCAG  4280 fluorescence intensity (a.u.)
27. CGCCTCGCGCCGTTGCCATCGTCATCCGCATCGCCTCGCGCGGAGTCACCTAGTGCAG  4630 fluorescence intensity (a.u.)
28. TGGTGTGCACGTGTATATACACGTGAGAGCCTGTGTGCATCGGAGTCACCTAGTGCAG  4660 fluorescence intensity (a.u.)
29. CATTATCTGGTTGATGATGGTGCACGTGTGTATGCATTAACGGAGTCACCTAGTGCAG  4760 fluorescence intensity (a.u.)
30. AAGAAACAACACACGTTAGCATTTCACTGCTATTAAGTTCCGGAGTCACCTAGTGCAG  5010 fluorescence intensity (a.u.)
31. GCAGTGCCGCCCCTACGTCACGCGCGGGGACTGCGTCGCGCGGAGTCACCTAGTGCAG  5020 fluorescence intensity (a.u.)
32. ATTCGTCTGAAAATTGTGTTTCACATGCGTCATTTCTCTACGGAGTCACCTAGTGCAG  5080 fluorescence intensity (a.u.)
33. GGCGTGCGAGTCACGTGACCCACGTGCCAAACTGCCTCTTCGGAGTCACCTAGTGCAG  5300 fluorescence intensity (a.u.)
34. TCGTTCACTTCCCGATTTCTATTCAGTCTAGTCACACCGTCGGAGTCACCTAGTGCAG  5510 fluorescence intensity (a.u.)
35. TATCCTAACGGTGACGTAGTACTTTTGAGCTGTCCTAGGACGGAGTCACCTAGTGCAG  5940 fluorescence intensity (a.u.)
36. GCAGAAACACGTCAATCTTGTGCTCTTGTCATCAATATTTCGGAGTCACCTAGTGCAG  6390 fluorescence intensity (a.u.)
37. AATGTAGGATGATGTGGCGGTTTATAACATCAAGTGTACTCGGAGTCACCTAGTGCAG  8110 fluorescence intensity (a.u.)
38. CACGAAACACCACACGTCATCGCTGCAGTAAACGCCATCACGGAGTCACCTAGTGCAG  10000 fluorescence intensity (a.u.)
39. CGCCGTGGAAGAATATGATCACCGGGAACGGCTCCGCCGCCGGAGTCACCTAGTGCAG  12000 fluorescence intensity (a.u.)
40. TGAGTGGTTTTGTAAGTGGTTTAGGCTGATGTGGCAGGTTCGGAGTCACCTAGTGCAG  15400 fluorescence intensity (a.u.)
41. AATTTTCAAAAGAGAAAGGTAGCTGTGTGGTCAAGTTAGCCGGAGTCACCTAGTGCAG  20500 fluorescence intensity (a.u.)
42. CTCCGGCCGGCCACTCCCCTCCACGGAGAACTTTCCCCGACGGAGTCACCTAGTGCAG  20800 fluorescence intensity (a.u.)
43. CCGCTCCGTGCGGAAATTGGCGGATCCACCGAAGGTGACCCGGAGTCACCTAGTGCAG  21500 fluorescence intensity (a.u.)
44. TTTTGGTGGTTTTGATTTCGGTTTTGTCCGACGTGGCGCTCGGAGTCACCTAGTGCAG  22500 fluorescence intensity (a.u.)
45. TGAATTGGTAAGGCCGAACAGGCCTGTCAATCCAGCCCATCGGAGTCACCTAGTGCAG  22900 fluorescence intensity (a.u.)
46. CTTACTACTTGTGCTACCCTAGGGCAGCTCAAAATAGTGGCGGAGTCACCTAGTGCAG  24100 fluorescence intensity (a.u.)
47. GCTGTCGTGGACCTTGCCGCGTCGCGACACGTCAGCCCGACGGAGTCACCTAGTGCAG  25700 fluorescence intensity (a.u.)
48. GACTGTACACATGAAGGAACATATGTGCTGAAATACTGTACGGAGTCACCTAGTGCAG  26100 fluorescence intensity (a.u.)
49. ATTAAAATTATGAAATTTTAATGATTCATTAATCTCAAGACGGAGTCACCTAGTGCAG  29200 fluorescence intensity (a.u.)
50. AGTCGTACTTTCTACCAGCATTTGCAGCAGCTGTGAAATGCGGAGTCACCTAGTGCAG  29900 fluorescence intensity (a.u.)
51. CTACTGCAGCCTCTGAGAATTACAGAAAGCGAAGGTATGTCGGAGTCACCTAGTGCAG  35400 fluorescence intensity (a.u.)
52. ATCCTGTTGAAGTAAACTAAGTACTGAATGCTTAGAAAACCGGAGTCACCTAGTGCAG  36000 fluorescence intensity (a.u.)
53. CCGGCCCAACACCACTAACACGTTCAGCCCCAATCCCCAACGGAGTCACCTAGTGCAG  42400 fluorescence intensity (a.u.)
54. CTATTGCAAATTGCAATGCTGTATATGCACTTCATTAGAACGGAGTCACCTAGTGCAG  54100 fluorescence intensity (a.u.)
